Source: EP4818209A2 (Primatope Therapeutics Inc., dated 2026)

Biological target: baboon CD40 fusion protein (printed 'CD40-NMP fusion') used on the BIACore 3000 (baboon)
Test: BIACore 3000, h2C10 immobilized on a CM5 chip by amine coupling, CD40 fusion as analyte (Figure 16)

B1: humanized 2C10 antibody, Clone 2.189.2 (2C10_h3 + 2C10_l2) (antibody, V domains shown)
VH: QVQLVQSGAEVKKPGASVKVSCKASGYTFTNYWMHWVRQAPGQRLEWIGYINPSNDYTKYNQKFKDRATLTADKSANTAYMELSSLRSEDTAVYYCARQGFPYWGQGTLVTVSS
VL: EIVLTQSPATLSLSPGERATLSCSASSSVSYMHWYQQKPGQAPRRWIYDTSKLASGVPARFSGSGSGTDYTLTISSLEPEDFAVYYCHQLSSDPFTFGGGTKVEIK
notes: also called h2C10; mAb 2.189.2
In the case of B1, the binding is reported as “binds”.

No constants are given. Whether binding was seen depends on the method and setting. A result given as binding can be weak or reduced; the word gives no strength.
